Results as given in PubChem BioAssay AID1671190 (National Center for Advancing Translational Sciences (NCATS), 2021).
Values joined by “and” are separate entries in the source; they are usually repeats but may differ in a detail not shown here. Identical values can stand only once. Among all 580,000 compounds or so, about 6,100 (1.1%) were called active. Inconclusive results, whose numbers are uncertain, are shown with a selection of clear calls. Calls follow the shape of the dose curve; as a rule, active = well fitted inhibition curve with a large enough effect; inconclusive = small, poorly fitted or top-dose-only effect, or another doubt; inactive = no such curve, though single readings can be large or run the other way. A potency beside an inconclusive call is a rough fit, not a confirmed value.

Chains of the proteins cited; added tags and fusions are not shown.
UniProt P18054, whole entry, looked up: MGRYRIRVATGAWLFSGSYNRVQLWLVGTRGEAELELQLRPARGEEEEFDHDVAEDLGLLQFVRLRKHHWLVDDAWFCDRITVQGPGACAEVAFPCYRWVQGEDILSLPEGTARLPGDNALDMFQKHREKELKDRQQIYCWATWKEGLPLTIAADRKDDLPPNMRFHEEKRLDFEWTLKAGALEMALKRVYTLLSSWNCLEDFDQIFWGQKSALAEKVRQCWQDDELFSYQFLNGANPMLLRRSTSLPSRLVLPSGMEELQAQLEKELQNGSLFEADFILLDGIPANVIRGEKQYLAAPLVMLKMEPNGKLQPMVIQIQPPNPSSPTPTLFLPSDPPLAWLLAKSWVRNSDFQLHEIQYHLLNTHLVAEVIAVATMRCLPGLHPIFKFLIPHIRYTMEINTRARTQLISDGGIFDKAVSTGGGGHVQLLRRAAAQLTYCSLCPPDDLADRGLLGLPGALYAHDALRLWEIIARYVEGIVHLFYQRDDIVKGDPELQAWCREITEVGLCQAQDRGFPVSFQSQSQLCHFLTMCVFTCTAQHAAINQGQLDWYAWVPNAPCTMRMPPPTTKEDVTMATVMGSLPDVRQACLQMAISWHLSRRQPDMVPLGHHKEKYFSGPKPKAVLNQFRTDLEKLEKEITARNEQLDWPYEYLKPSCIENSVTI

target: Polyunsaturated fatty acid lipoxygenase ALOX12 (Homo sapiens) (UniProt P18054); assay: Primary qHTS assay for inhibitors of human arachidonate 12S-lipoxygenase (ALOX12): Round 2; details: purified 12hLO, xylenol orange hydroperoxide absorbance; activity change, negative = inhibition: at 108 µM (top of the series) unless noted
Procedure, shortened: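 Hydroperoxide product was detected by ferrous iron/xylenol orange as the 573 to 405 nm absorbance ratio. Arachidonic acid at 40 uM (final) was turned over for 30 min at room temperature by 150 nM human 12hLO, pH 7.0 Hepes buffer, after 15 min compound preincubation.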
% is scaled to controls: 0 for no effect and ±100 for the full control effect; potency is read from the fitted curve at half-maximal effect.

SMILES	Potency	activity change, negative = inhibition
O=C(Nc1cccc(Cl)c1)C1CCc2sc(C(=O)N3CCCC3)cc2C1 (stereo not given)	inconclusive: 70.8 µM [inhibitor, partial curve, poor fit]	–
CCOC(=O)C1C(=O)C=C(C)C(C(=O)OCC)C1c1cccc([N+](=O)[O-])c1 (stereo not given)	inconclusive: 31.6 µM [inhibitor, partial curve, poor fit]	–
CCc1c(C)sc2nc(NCc3ccco3)n3nc(-c4ccco4)nc3c12	inconclusive: 44.7 µM [inhibitor, partial curve, poor fit]	–
CCOc1ccc(-n2c(=S)sc3c(=O)n(-c4ccccc4)c(SC)nc32)cc1	–	inactive: 0%
O=C(Cn1c(=O)n(Cc2ccc3c(c2)OCO3)c(=O)c2ccccc21)N1CCCc2ccccc21	inconclusive: 11.2 µM [inhibitor, partial curve, poor fit]	–
CC(=O)CC1(C#N)C(N)=C(C=O)CC1(C#N)C#N (stereo not given)	inconclusive: 3.98 µM [inhibitor, full curve]	–
COCCc1ccc(OC2(C)CCN(Cc3cccc(OC)c3OC)C2)cc1 (stereo not given)	inconclusive: 126 µM [inhibitor, single point]	–
COc1cccc(Oc2c(C)oc3c(CN4CCCCC4)c(O)ccc3c2=O)c1	–	inactive: -14.2%
COc1ccc(-c2nc3cnc(N4CCOCC4)nc3n(Cc3cccs3)c2=O)cc1	inconclusive: 17.8 µM [inhibitor, partial curve, poor fit]	–
CC(/C=N/Nc1nc2ccccc2[nH]1)=C\c1ccccc1	inconclusive: 70.8 µM [inhibitor, single point]	–
COc1ccc2c(C)c(CC(=O)Nc3cccc(C(C)=O)c3)c(=O)oc2c1C	inconclusive: 89.1 µM [inhibitor, single point]	–
O=C(Nc1cccc(-c2ccc(N3CCOCC3)nn2)c1)c1ccccc1	inconclusive: 50.1 µM [inhibitor, partial curve, poor fit]	–
O=C(CSc1ccc(Br)cc1)N1CCN(C(=O)c2ccco2)CC1	inconclusive: 141 µM [inhibitor, partial curve, poor fit]	–
Cc1cccc(CN2C(=O)CCSc3ccc(Cl)cc32)c1	–	inactive: 2.99%
CCc1ccccc1NC(=O)C1CCCN(c2cnc3ccccc3n2)C1 (stereo not given)	inconclusive: 25.1 µM [inhibitor, partial curve, poor fit]	–
COc1ccc(-c2nnc(Nc3ccc(OC)c(C(=O)N4CCCCC4)c3)c3ccccc23)cc1	inconclusive: 28.2 µM [inhibitor, full curve, poor fit]	–
CC(C)c1ccc(NC(=S)Nc2ccc3cn[nH]c3c2)cc1	inconclusive: 44.7 µM [inhibitor, partial curve, poor fit]	–
COc1ccc(-n2nnnc2C2CCN(S(=O)(=O)c3ccc(F)cc3)CC2)cc1	inconclusive: 112 µM [inhibitor, partial curve, poor fit]	–
COc1ccccc1Oc1ccc(NC(=O)Cn2ncc3ccc(OC)c(OC)c3c2=O)cc1	–	inactive: 67%
O=C(CCc1ccccc1)N1CCCC(Cc2nc(C3CCOCC3)no2)C1 (stereo not given)	–	inactive: 10%

SMILES	Potency	activity change, negative = inhibition
O=C(CNC(=O)c1ccccc1O)N/N=C/c1cc(Br)ccc1OC(=O)/C=C/c1ccco1	inconclusive: 56.2 µM [inhibitor, partial curve, poor fit]	–
COc1ccc(CN2CCC[C@]3(N[C@H](c4ccc(C)cc4)[C@@H]4C(=O)N(Cc5ccccc5)C(=O)[C@@H]43)C2=O)cc1	inconclusive: 35.5 µM [inhibitor, partial curve]	–
COc1cccc(CN2CCN(C(=O)c3cc(-c4cccnc4)nc4ccc(C)cc34)CC2)c1	–	inactive: 0%
COC(=O)[C@@H]1C[C@@]2(O)[C@@H](O)[C@@H](O)[C@@H](O)C[C@H]2N1Cc1ccc(Cl)cc1	inconclusive: 14.1 µM [inhibitor, full curve]	–
COc1ccccc1N1CCN(CCN2C(=O)c3ccccc3C(C)(C)C2=O)CC1	inconclusive: 12.6 µM [inhibitor, partial curve, poor fit] and inconclusive: 31.6 µM [inhibitor, partial curve, poor fit]	–
CCOC(=O)C1=C(CSc2nc3c(cc2C#N)CN(C)CC3)OC(N)=C(C#N)C1c1ccncc1 (stereo not given)	–	inactive: -11.5%
COc1ccc(OC)c(N/C(C)=C/C(=O)c2ccncc2)c1	–	inactive: 4.16%
COc1ccc2nc(-n3c(O)c(C4=c5ccccc5=NC4=O)[nH]c3=S)sc2c1	–	inactive: -26.5%
CCOc1ccc(C(=O)NCC(=O)NCC(c2ccc(OC)cc2)N2CCCC2)cc1 (stereo not given)	–	inactive: 4.44%
O=C(NCc1cnn(-c2ccccc2)c1)C1CCN(S(=O)(=O)c2ccc(F)cc2)CC1	inconclusive: 100 µM [inhibitor, single point]	–
C/C(=C\C(=O)c1ccccc1)Nc1ccc(N2CCOCC2)cc1	inconclusive: 56.2 µM [inhibitor, partial curve, poor fit]	–
O=S(c1ccccc1)C(c1ccccc1)c1ccccc1 (stereo not given)	active: 31.6 µM	–
O=[S+]([O-])(Nc1ccccc1)c1ccc2c(c1)OCCN(Cc1cncnc1)C2	–	inactive: -19.1% [at 176 µM]
COc1ccc(NC(=O)N2CCN3C(=O)CNC(=O)C3C2)c(C)c1 (stereo not given)	inconclusive: 8.91 µM [inhibitor, partial curve, poor fit]	–
C=CCNCc1ccc(-c2cccc(C(F)(F)F)c2)o1	inconclusive: 44.7 µM [inhibitor, partial curve, poor fit]	–
c1csc(C2=Nn3c(nnc3-c3ccncc3)SC2)c1	inconclusive: 35.5 µM [inhibitor, single point]	–
Cc1nc2ccc(-c3nc4ccc(N)cc4[nH]3)cc2[nH]1	–	inactive: -3.15%
CN(CC(=O)Nc1ccc(Cl)c(C(F)(F)F)c1)C(=O)c1ccc2c(c1)NC(=O)CS2	inconclusive: 100 µM [inhibitor, partial curve, poor fit]	–
O=C(O)c1ccc2n[nH]nc2c1	inconclusive: 39.8 µM [inhibitor, partial curve, poor fit]	–
Cc1ccc(/C=C/C(=O)Nc2nccs2)o1	inconclusive: 50.1 µM [inhibitor, partial curve, poor fit]	–
